Data from paper PMC9918532.
Results are given in words; binding and its absence hold for the method and conditions named. Binding seen in cells or lysates may run through a third protein. Some results given as binding are weak or reduced against the parent protein; the word gives no strength. Where a sequence is shown, tags or fusion partners need not be part of it.

Tests used:
HA-OGT (human) = target: T1, HA-OGT (human) (UniProt O15294); assay: co-IP; HEK293 cells co-transfected with HA-tagged or Flag-tagged OGT and YTHDF2 (full length, ΔC or ΔN); pre-cleared lysates with anti-HA antibody overnight at 4 °C, then protein A/G agarose beads 4 h; immunoblot
T1 sequence: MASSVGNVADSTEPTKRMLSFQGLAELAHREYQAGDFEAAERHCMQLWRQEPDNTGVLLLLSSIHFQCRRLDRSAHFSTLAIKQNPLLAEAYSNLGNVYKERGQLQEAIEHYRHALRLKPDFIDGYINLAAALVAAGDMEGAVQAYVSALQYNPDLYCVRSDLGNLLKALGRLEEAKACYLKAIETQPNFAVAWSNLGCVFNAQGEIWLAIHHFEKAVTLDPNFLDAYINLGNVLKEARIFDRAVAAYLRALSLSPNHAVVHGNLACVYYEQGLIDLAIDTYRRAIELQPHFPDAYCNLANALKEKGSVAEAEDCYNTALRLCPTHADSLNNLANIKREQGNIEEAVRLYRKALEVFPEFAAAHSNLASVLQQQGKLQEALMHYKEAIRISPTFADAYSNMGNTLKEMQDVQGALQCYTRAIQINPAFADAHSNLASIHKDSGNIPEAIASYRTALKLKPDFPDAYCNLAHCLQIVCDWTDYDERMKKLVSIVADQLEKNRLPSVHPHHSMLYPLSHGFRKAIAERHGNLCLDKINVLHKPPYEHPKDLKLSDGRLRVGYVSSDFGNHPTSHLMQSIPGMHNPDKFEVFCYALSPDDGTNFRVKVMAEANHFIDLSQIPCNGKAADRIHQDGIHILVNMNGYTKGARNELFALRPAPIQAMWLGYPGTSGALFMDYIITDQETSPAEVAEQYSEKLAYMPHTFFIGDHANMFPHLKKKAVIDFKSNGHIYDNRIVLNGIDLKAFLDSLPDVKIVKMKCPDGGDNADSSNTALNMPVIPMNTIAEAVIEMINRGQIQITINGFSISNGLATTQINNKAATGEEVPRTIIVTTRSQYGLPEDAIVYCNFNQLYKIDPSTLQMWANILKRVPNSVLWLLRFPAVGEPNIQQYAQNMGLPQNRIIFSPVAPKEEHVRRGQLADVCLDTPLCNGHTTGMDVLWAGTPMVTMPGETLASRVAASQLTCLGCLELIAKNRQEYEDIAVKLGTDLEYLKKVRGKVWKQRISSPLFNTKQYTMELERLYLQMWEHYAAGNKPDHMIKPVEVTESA

HA-YTHDF2 (human) = target: T2, HA-YTHDF2 (human) (UniProt Q9Y5A9); assay: as above
T2 sequence: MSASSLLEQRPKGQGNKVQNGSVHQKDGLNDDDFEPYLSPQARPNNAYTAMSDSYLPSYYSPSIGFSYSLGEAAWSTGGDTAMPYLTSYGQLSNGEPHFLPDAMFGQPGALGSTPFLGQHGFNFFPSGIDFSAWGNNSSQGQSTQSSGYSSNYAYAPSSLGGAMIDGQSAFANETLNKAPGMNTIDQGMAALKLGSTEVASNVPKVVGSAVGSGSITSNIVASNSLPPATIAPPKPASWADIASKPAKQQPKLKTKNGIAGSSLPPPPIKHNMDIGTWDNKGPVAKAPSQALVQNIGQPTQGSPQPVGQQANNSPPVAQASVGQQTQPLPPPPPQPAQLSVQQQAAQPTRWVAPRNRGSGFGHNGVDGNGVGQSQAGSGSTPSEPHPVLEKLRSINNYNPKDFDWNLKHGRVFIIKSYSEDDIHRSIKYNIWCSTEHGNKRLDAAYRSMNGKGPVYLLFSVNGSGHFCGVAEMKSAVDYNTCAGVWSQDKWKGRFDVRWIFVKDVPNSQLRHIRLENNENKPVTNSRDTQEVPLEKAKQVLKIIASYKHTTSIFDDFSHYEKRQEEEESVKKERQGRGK

B1: Flag-YTHDF2 (protein, UniProt Q9Y5A9-1 1-579)
chain: MSASSLLEQRPKGQGNKVQNGSVHQKDGLNDDDFEPYLSPQARPNNAYTAMSDSYLPSYYSPSIGFSYSLGEAAWSTGGDTAMPYLTSYGQLSNGEPHFLPDAMFGQPGALGSTPFLGQHGFNFFPSGIDFSAWGNNSSQGQSTQSSGYSSNYAYAPSSLGGAMIDGQSAFANETLNKAPGMNTIDQGMAALKLGSTEVASNVPKVVGSAVGSGSITSNIVASNSLPPATIAPPKPASWADIASKPAKQQPKLKTKNGIAGSSLPPPPIKHNMDIGTWDNKGPVAKAPSQALVQNIGQPTQGSPQPVGQQANNSPPVAQASVGQQTQPLPPPPPQPAQLSVQQQAAQPTRWVAPRNRGSGFGHNGVDGNGVGQSQAGSGSTPSEPHPVLEKLRSINNYNPKDFDWNLKHGRVFIIKSYSEDDIHRSIKYNIWCSTEHGNKRLDAAYRSMNGKGPVYLLFSVNGSGHFCGVAEMKSAVDYNTCAGVWSQDKWKGRFDVRWIFVKDVPNSQLRHIRLENNENKPVTNSRDTQEVPLEKAKQVLKIIASYKHTTSIFDDFSHYEKRQEEEESVKKERQGRGK
For B1, which binding (HA-OGT (human)) is on record?
Its binding is “binds”.

B2: Flag-OGT (enzyme, UniProt O15294-1 1-1046)
chain: MASSVGNVADSTEPTKRMLSFQGLAELAHREYQAGDFEAAERHCMQLWRQEPDNTGVLLLLSSIHFQCRRLDRSAHFSTLAIKQNPLLAEAYSNLGNVYKERGQLQEAIEHYRHALRLKPDFIDGYINLAAALVAAGDMEGAVQAYVSALQYNPDLYCVRSDLGNLLKALGRLEEAKACYLKAIETQPNFAVAWSNLGCVFNAQGEIWLAIHHFEKAVTLDPNFLDAYINLGNVLKEARIFDRAVAAYLRALSLSPNHAVVHGNLACVYYEQGLIDLAIDTYRRAIELQPHFPDAYCNLANALKEKGSVAEAEDCYNTALRLCPTHADSLNNLANIKREQGNIEEAVRLYRKALEVFPEFAAAHSNLASVLQQQGKLQEALMHYKEAIRISPTFADAYSNMGNTLKEMQDVQGALQCYTRAIQINPAFADAHSNLASIHKDSGNIPEAIASYRTALKLKPDFPDAYCNLAHCLQIVCDWTDYDERMKKLVSIVADQLEKNRLPSVHPHHSMLYPLSHGFRKAIAERHGNLCLDKINVLHKPPYEHPKDLKLSDGRLRVGYVSSDFGNHPTSHLMQSIPGMHNPDKFEVFCYALSPDDGTNFRVKVMAEANHFIDLSQIPCNGKAADRIHQDGIHILVNMNGYTKGARNELFALRPAPIQAMWLGYPGTSGALFMDYIITDQETSPAEVAEQYSEKLAYMPHTFFIGDHANMFPHLKKKAVIDFKSNGHIYDNRIVLNGIDLKAFLDSLPDVKIVKMKCPDGGDNADSSNTALNMPVIPMNTIAEAVIEMINRGQIQITINGFSISNGLATTQINNKAATGEEVPRTIIVTTRSQYGLPEDAIVYCNFNQLYKIDPSTLQMWANILKRVPNSVLWLLRFPAVGEPNIQQYAQNMGLPQNRIIFSPVAPKEEHVRRGQLADVCLDTPLCNGHTTGMDVLWAGTPMVTMPGETLASRVAASQLTCLGCLELIAKNRQEYEDIAVKLGTDLEYLKKVRGKVWKQRISSPLFNTKQYTMELERLYLQMWEHYAAGNKPDHMIKPVEVTESA
How did the binding (HA-YTHDF2 (human)) turn out when B2 was run?
Its binding is “binds”.
